Test results: patent US20130273053A1
These are yes or no findings as the source states them, for the method shown. Some binding calls cover weakened binding; strength is not graded here. Blank lines part the entries; values can stand above or below the binder they belong to.

Amino acid sequences for entries named in this document (tags omitted). A change or cut given only in a name is not applied to a line headed by its entry.
UniProt P48740: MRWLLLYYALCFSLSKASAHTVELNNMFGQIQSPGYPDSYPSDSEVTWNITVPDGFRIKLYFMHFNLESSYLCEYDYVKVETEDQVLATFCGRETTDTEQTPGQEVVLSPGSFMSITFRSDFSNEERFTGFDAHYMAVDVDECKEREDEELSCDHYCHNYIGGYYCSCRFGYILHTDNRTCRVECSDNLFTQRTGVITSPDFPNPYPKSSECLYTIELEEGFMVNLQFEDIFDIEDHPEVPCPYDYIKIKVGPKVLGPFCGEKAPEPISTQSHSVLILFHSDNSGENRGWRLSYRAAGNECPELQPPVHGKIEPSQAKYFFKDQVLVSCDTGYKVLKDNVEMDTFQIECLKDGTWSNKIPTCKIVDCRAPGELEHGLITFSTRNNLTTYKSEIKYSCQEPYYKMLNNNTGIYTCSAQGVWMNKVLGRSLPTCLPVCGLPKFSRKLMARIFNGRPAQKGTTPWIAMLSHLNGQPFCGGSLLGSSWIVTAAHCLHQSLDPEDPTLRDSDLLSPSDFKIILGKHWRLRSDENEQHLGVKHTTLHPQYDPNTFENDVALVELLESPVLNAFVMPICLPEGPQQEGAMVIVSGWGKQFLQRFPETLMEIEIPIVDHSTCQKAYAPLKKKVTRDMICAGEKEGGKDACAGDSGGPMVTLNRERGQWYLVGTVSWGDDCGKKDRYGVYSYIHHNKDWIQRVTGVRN

What was measured:
human MASP-3 (human) [1] = assay: saturation binding by flow cytometry: DTLacO cells expressing the antibody, stained with increasing concentrations of fluorescent-labelled soluble MASP-3 antigen
human MASP-3 (human) [2] = assay: DTLacO screens
human MASP-3 (human) [3] = assay: flow cytometry (FACS) of DTLacO cells displaying clone M3J5, stained with MASP-3 antigen; filled curve is the IgG1-stained negative control
human MASP-3 (human) [4] = assay: FACS, DTLacO cells stained with MASP-3 antigen
human MASP-3 (human) [5] = assay: flow cytometry (FACS) of DTLacO cells displaying clone M3M1, stained with MASP-3 antigen; filled curve is the IgG1-stained negative control
human MASP-1 (human) = human MASP-1 (human) (UniProt P48740); assay: DTLacO screens

B1: MASP-3 specific clone M3J5 (antibody, IgM, V domains shown)
VH: AVTLDESGGGLQTPGGGLSLVCKASGFTFSSYAMGWMRQAPGKGLEYVAGIRSDGSFTLYATAVKGRATISRDNGQSTVRLQLNNLRAEDTATYFCTRSGNVGDIDAWGHGTEVIVSS
VL: ALTQPASVSANPGETVKITCSGGYSGYAGSYYYGWYQQKAPGSAPVTLIYYNNKRPSDIPSRFSGSLSGSTNTLTITGVRADDEAVYFCGSADNSGAAFGAGTTLTVL
binding (human MASP-3 (human) [1]): binds
binding (human MASP-3 (human) [2]): binds
binding (human MASP-3 (human) [3]): binds
binding (human MASP-3 (human) [4]): binds

B2: MASP-3 specific clone M3M1 (antibody, V domains shown)
VH: AVTLDESGGGLQTPGGGLSLVCKASGFDFSSYQMNWIRQAPGKGLEFVAAINRFGNSTGHGAAVKGRVTISRDDGQSTVRLQLSNLRAEDTATYYCAKGVYGYCGSYSCCGVDTIDAWGHGTEVIVSS
VL: ALTQPASVSANPGETVKITCSGGGSYAGSYYYGWYQQKAPGSAPVTLIYYNNKRPSDIPSRFSGSLSGSTNTLTITGVRADDEAVYFCGSADNSGAAFGAGTTLTVL
binding (human MASP-3 (human) [5]): binds
binding (human MASP-3 (human) [2]): binds
binding (human MASP-3 (human) [4]): binds

The next lines start with the values.

binding (human MASP-3 (human) [2]): binds
binding (human MASP-1 (human)): binds
B3: clone 1E10 (MASP-1/MASP-3 dual binding clone) (antibody, human IgG1, V domains shown)
VH: AVTLDESGGGLQTPGGALSLVCKASGFTFSSYDMVWVRQAPGKGLEFVAGISRNDGRYTEYGSAVKGRATISRDNGQSTVRLQLNNLRAEDTATYYCARDAGGSAYWFDAGQIDAWGHGTEVIVSS
VL: B2 VL

binding (human MASP-3 (human) [2]): binds
binding (human MASP-1 (human)): binds
B4: clone D14 (MASP-1/MASP-3 dual binding clone) (antibody, human IgG1, V domains shown)
VH: AVTLDESGGGLQTPGGALSLVCKASGFTFSSYAMHWVRQAPGKGLEWVAGIYKSGAGTNYAPAVKGRATISRDNGQSTVRLQLNNLRAEDTGTYYCAKTTGSGCSSGYRAEYIDAWGHGTEVIVSS
VL: B2 VL
